The experiment concerns the target MYC-BirA*-Rab2A (Mouse) (mouse) (UniProt P53994). Put plainly: proximity labelling; HEK293T cells transfected with BirA*-Rab2A and HSD17B13 plasmids, NeutrAvidin beads pulldown, Western blotting. (In general: In western blotting, separated proteins are transferred to a membrane and probed.)

Sequences of proteins named here, by UniProt entry; tags and fusion partners are left off. A change or cut given only in a name is not applied to a line headed by its entry.
UniProt P53994: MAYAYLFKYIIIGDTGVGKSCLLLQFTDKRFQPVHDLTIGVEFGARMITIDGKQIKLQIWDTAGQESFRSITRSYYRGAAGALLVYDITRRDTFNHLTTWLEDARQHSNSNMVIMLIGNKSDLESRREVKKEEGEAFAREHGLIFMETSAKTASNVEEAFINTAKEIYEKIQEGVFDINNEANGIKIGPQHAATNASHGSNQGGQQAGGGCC
UniProt Q8VCR2: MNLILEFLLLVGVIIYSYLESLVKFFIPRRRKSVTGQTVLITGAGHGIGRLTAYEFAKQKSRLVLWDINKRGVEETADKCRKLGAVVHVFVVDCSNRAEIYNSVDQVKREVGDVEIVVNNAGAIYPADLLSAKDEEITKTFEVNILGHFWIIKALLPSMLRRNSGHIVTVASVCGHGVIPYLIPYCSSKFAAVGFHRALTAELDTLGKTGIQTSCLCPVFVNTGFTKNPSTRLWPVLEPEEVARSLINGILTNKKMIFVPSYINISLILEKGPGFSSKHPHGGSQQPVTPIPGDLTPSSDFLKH

Results are given in words; binding and its absence hold for the method and conditions named. Binding seen in cells or lysates may run through a third protein. A yes stands for co-enrichment or nearness to the bait. Other partners may have been found.

“HSD17B13 expressed from a plasmid in HEK293T cells (tag not told) (from UniProt Q8VCR2)”: the binding result is on record as “binds”.
